PubChem BioAssay AID1259254, NCATS, 2017
Aim: 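Gene knock-downs that lead to re-replication, shown by excess G2 DNA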 (primary screen). Cell system: human HCT116 colorectal cancer cells. Reagent: single siRNA against human genes. Duration: 3 days. Read-out: 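Nuclei stained with Hoechst and imaged; cell-cycle phase assigned by DNA content; G2 share scaled per plate, non-targeting siRNA 0%, GMNN siRNA 100%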. Direction: G2 robust z-score: higher = more G2 cells, more excess DNA replication. Rule for the call: 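Active siRNAs have a G2 robust z of 5 or more median absolute deviations over the median, which in these data means about 38% or higher of GMNN control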.
The deposit covers about 59,000 reagents; this is a part drawn at random. About 1,550 of them (2.6%) count as active. 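G2 share is only a proxy for re-replication; each gene was hit by three separate siRNAs, and active genes were retested.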 The numbers tell different reagents against one gene apart. Further read-outs or replicates are left out here. Reagent sequences are not shown. Not stated in the record: the amount of reagent.

target | siRNA no. | G2 robust z-score | call
SMAP2 (small ArfGAP2) | 1 | -1.13 | inactive
SMAP2 (small ArfGAP2) | 2 | 1.52 | inactive
SMAP2 (small ArfGAP2) | 3 | -1.09 | inactive
CAPN1-AS1 (CAPN1 antisense RNA 1) | 1 | -0.126 | inactive
CAPN1-AS1 (CAPN1 antisense RNA 1) | 2 | 4.43 | inactive
CAPN1-AS1 (CAPN1 antisense RNA 1) | 3 | -0.792 | inactive
CDS2 (CDP-diacylglycerol synthase 2) | 1 | -0.928 | inactive
CDS2 (CDP-diacylglycerol synthase 2) | 2 | -0.774 | inactive
CDS2 (CDP-diacylglycerol synthase 2) | 3 | -0.717 | inactive
DRAIC | 1 | 0.152 | inactive
DRAIC | 2 | 0.803 | inactive
DRAIC | 3 | 0.322 | inactive
CAND2 (cullin associated and neddylation dissociated 2 (putative)) | 1 | -1.08 | inactive
CAND2 (cullin associated and neddylation dissociated 2 (putative)) | 2 | -0.939 | inactive
CAND2 (cullin associated and neddylation dissociated 2 (putative)) | 3 | -0.0177 | inactive
SETD6 (SET domain containing 6, protein lysine methyltransferase) | 1 | 0.159 | inactive
SETD6 (SET domain containing 6, protein lysine methyltransferase) | 2 | -0.273 | inactive
SETD6 (SET domain containing 6, protein lysine methyltransferase) | 3 | -1.07 | inactive
CD209 (CD209 molecule) | 1 | -0.453 | inactive
CD209 (CD209 molecule) | 2 | -0.082 | inactive
CD209 (CD209 molecule) | 3 | -0.248 | inactive
FABP5P1 (fatty acid binding protein 5 pseudogene 1) | 1 | 1.77 | inactive
FABP5P1 (fatty acid binding protein 5 pseudogene 1) | 2 | 1.44 | inactive
FABP5P1 (fatty acid binding protein 5 pseudogene 1) | 3 | -0.854 | inactive
CRYM (crystallin mu) | 1 | -0.306 | inactive
CRYM (crystallin mu) | 2 | 0.697 | inactive
CRYM (crystallin mu) | 3 | 1.88 | inactive
ZFYVE27 (zinc finger FYVE-type containing 27) | 1 | -0.452 | inactive
ZFYVE27 (zinc finger FYVE-type containing 27) | 2 | -0.196 | inactive
ZFYVE27 (zinc finger FYVE-type containing 27) | 3 | -0.654 | inactive
POTED (POTE ankyrin domain family member D) | 1 | 0.223 | inactive
POTED (POTE ankyrin domain family member D) | 2 | -1.29 | inactive
POTED (POTE ankyrin domain family member D) | 3 | 0.425 | inactive
ZNF117 (zinc finger protein 117) | 1 | -0.795 | inactive
ZNF117 (zinc finger protein 117) | 2 | 3.58 | inactive
ZNF117 (zinc finger protein 117) | 3 | 2.57 | inactive
PPARGC1B (PPARG coactivator 1 beta) | 1 | -0.16 | inactive
PPARGC1B (PPARG coactivator 1 beta) | 2 | 0.886 | inactive
PPARGC1B (PPARG coactivator 1 beta) | 3 | -0.18 | inactive
ATP7B (ATPase copper transporting beta) | 1 | 0.00282 | inactive
ATP7B (ATPase copper transporting beta) | 2 | -1.51 | inactive
ATP7B (ATPase copper transporting beta) | 3 | -0.0905 | inactive
HYAL1 (hyaluronidase 1) | 1 | 0.066 | inactive
HYAL1 (hyaluronidase 1) | 2 | 0.384 | inactive
HYAL1 (hyaluronidase 1) | 3 | -1.08 | inactive
TMEM132E-DT (TMEM132E divergent transcript) | 1 | 0.104 | inactive
TMEM132E-DT (TMEM132E divergent transcript) | 2 | 0.617 | inactive
TMEM132E-DT (TMEM132E divergent transcript) | 3 | -0.225 | inactive
CLIC3 (CLIC family member 3) | 1 | -0.338 | inactive
CLIC3 (CLIC family member 3) | 2 | -0.573 | inactive
CLIC3 (CLIC family member 3) | 3 | -0.483 | inactive
PTBP2 (polypyrimidine tract binding protein 2) | 1 | -1.3 | inactive
PTBP2 (polypyrimidine tract binding protein 2) | 2 | -0.577 | inactive
PTBP2 (polypyrimidine tract binding protein 2) | 3 | -0.94 | inactive
KRT78 (keratin 78) | 1 | 4.18 | inactive
KRT78 (keratin 78) | 2 | 0.757 | inactive
KRT78 (keratin 78) | 3 | 6.81 | active
USP32 (ubiquitin specific peptidase 32) | 1 | 6.02 | active
USP32 (ubiquitin specific peptidase 32) | 2 | -0.447 | inactive
USP32 (ubiquitin specific peptidase 32) | 3 | 1.66 | inactive
PFKFB1 (6-phosphofructo-2-kinase/fructose-2,6-biphosphatase 1) | 1 | -0.535 | inactive
PFKFB1 (6-phosphofructo-2-kinase/fructose-2,6-biphosphatase 1) | 2 | 4.39 | inactive
PFKFB1 (6-phosphofructo-2-kinase/fructose-2,6-biphosphatase 1) | 3 | 0.468 | inactive
CEP350 (centrosomal protein 350) | 1 | 0.724 | inactive
CEP350 (centrosomal protein 350) | 2 | -0.164 | inactive
CEP350 (centrosomal protein 350) | 3 | 0.92 | inactive
EXD3 (exonuclease 3'-5' domain containing 3) | 1 | 0.344 | inactive
EXD3 (exonuclease 3'-5' domain containing 3) | 2 | -0.312 | inactive
EXD3 (exonuclease 3'-5' domain containing 3) | 3 | -0.777 | inactive

A few values from the list:
Result for CLIC3 (CLIC family member 3) #2 in “G2 robust z-score”: -0.573
For “G2 robust z-score”, PFKFB1 (6-phosphofructo-2-kinase/fructose-2,6-biphosphatase 1) #1 reads -0.535
For “call”, PPARGC1B (PPARG coactivator 1 beta) #3 reads inactive
DRAIC #2, call: inactive
PFKFB1 (6-phosphofructo-2-kinase/fructose-2,6-biphosphatase 1) #3, G2 robust z-score → 0.468
